Measured values taken from article PMC6591170.

Tested on: human alpha-thrombin (Homo sapiens)
Experiment: ITC
Settings: 3'-glycerol-3' linker joins the two listed segments covalently (both written 5' to 3'); one molecule, not a duplex; ITC in PBS (10 mM phosphate, 2.7 mM KCl, 137 mM NaCl), pH 7.4, 22 °C; ODN 25 or 100 µM into thrombin 2.5 or 10 µM; commercial protein; folded or branched DNA; letters put together from the description

| Sequence | Kd |
| --- | --- |
| GGTTGGTGTGGTTGG / GGTTGGTGTGGTTGG [Gly] | 15 nM |
| GGTTGGTGTGGTTGGA / GGTTGGTGTGGTTGGA [AGlyA] | 5 nM |

The exact form of at least one protein or probe is not confirmed.
